Assay results as given in publication PMC7768483.

Amino acid sequences for entries named in this document (tags omitted). A change or cut given only in a name is not applied to a line headed by its entry.
UniProt P48031: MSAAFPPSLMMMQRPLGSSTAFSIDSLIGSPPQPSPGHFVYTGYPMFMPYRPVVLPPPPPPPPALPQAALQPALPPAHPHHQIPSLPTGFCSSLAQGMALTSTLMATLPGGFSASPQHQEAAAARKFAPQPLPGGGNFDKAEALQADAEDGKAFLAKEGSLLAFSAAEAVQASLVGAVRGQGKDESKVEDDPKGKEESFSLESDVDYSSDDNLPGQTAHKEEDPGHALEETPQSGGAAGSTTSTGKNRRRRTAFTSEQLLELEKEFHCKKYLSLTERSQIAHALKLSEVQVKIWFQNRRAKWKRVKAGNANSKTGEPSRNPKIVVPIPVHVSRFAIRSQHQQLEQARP

Target: GBX2 (full-length) (mouse) (UniProt P48031)
Test: competition with a labelled probe
Details: unlabeled N2 at 100x, 300x, 500x against labeled N1, reduction of shift diminished; 2X binding buffer: 20 mM Tris-HCl pH 7.4, 50 mM KCl, 1 mM DTT, 10% glycerol, 200 µg/mL BSA, 2.2 µg/mL poly dI/dC; 30 min at 25 °C; 6% native PAGE, Tris-glycine; recombinant protein; residues 1-348; label: unlabeled

AACATTCCAAAAATTATCAAGATTGAGTTCTGCTTGTTTTTTATT (double strand) [NRP1 mutated 45-mer (GBX2-binding sequence omitted)]
binding result: binds more weakly

Weaker means in comparison with the reference protein, sequence or condition of that experiment.
